Measurements reported in PubChem BioAssay AID1259254 (NCATS, 2017)

Aim: 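Finding genes that stop cells copying their DNA twice in one cycle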 (primary screen)
Cell system: human HCT116 colorectal cancer cells
Reagents: single siRNA against human genes
Time to read-out: 3 days
Measurement: 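Nuclei stained with Hoechst and imaged; cell-cycle phase assigned by DNA content; G2 share scaled per plate, non-targeting siRNA 0%, GMNN siRNA 100%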
Reading the numbers: G2 robust z-score and G2 cells, % of GMNN control: higher = more G2 cells, more excess DNA replication
Call rule: 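Active siRNAs have a G2 robust z of 5 or more median absolute deviations over the median, which in these data means about 38% or higher of GMNN control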
In all, the deposit lists about 59,000 reagents; this is a part drawn at random. About 1,550 of all reagents (2.6%) were called active. 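G2 share is only a proxy for re-replication; each gene was hit by three separate siRNAs, and active genes were retested.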 Reagents against one gene are numbered here. Further read-outs or replicates are left out here. Not given: the amount of reagent.

gene knocked down	siRNA no.	G2 robust z-score	G2 cells, % of GMNN control	outcome
GIMAP6 (GTPase, IMAP family member 6)	1	0.445	6.1	inactive
GIMAP6 (GTPase, IMAP family member 6)	2	-0.591	-1.19	inactive
GIMAP6 (GTPase, IMAP family member 6)	3	2.7	22	inactive
IQCB1 (IQ motif containing B1)	1	-0.51	-0.624	inactive
IQCB1 (IQ motif containing B1)	2	1.42	13	inactive
IQCB1 (IQ motif containing B1)	3	-0.167	1.79	inactive
FRMPD1 (FERM and PDZ domain containing 1)	1	6.63	49.6	active
FRMPD1 (FERM and PDZ domain containing 1)	2	0.215	4.48	inactive
FRMPD1 (FERM and PDZ domain containing 1)	3	-0.05	2.62	inactive
CNIH1 (cornichon family member 1)	1	2.07	17.5	inactive
CNIH1 (cornichon family member 1)	2	3.2	25.5	inactive
CNIH1 (cornichon family member 1)	3	1.85	16	inactive
HERC4 (HECT and RLD domain containing E3 ubiquitin protein ligase 4)	1	-0.477	-0.391	inactive
HERC4 (HECT and RLD domain containing E3 ubiquitin protein ligase 4)	2	-0.304	0.829	inactive
HERC4 (HECT and RLD domain containing E3 ubiquitin protein ligase 4)	3	-0.973	-3.88	inactive
CCDC157 (coiled-coil domain containing 157)	1	1.3	12.1	inactive
CCDC157 (coiled-coil domain containing 157)	2	-0.382	0.283	inactive
CCDC157 (coiled-coil domain containing 157)	3	0.505	6.52	inactive
MINDY2 (MINDY lysine 48 deubiquitinase 2)	1	0.742	8.18	inactive
MINDY2 (MINDY lysine 48 deubiquitinase 2)	2	-0.329	0.652	inactive
MINDY2 (MINDY lysine 48 deubiquitinase 2)	3	-0.681	-1.82	inactive

Records listed so far whose target name starts with C or c (6):
gene knocked down	siRNA no.	G2 robust z-score	G2 cells, % of GMNN control	outcome
CNIH1 (cornichon family member 1)	1	2.07	17.5	inactive
CNIH1 (cornichon family member 1)	2	3.2	25.5	inactive
CNIH1 (cornichon family member 1)	3	1.85	16	inactive
CCDC157 (coiled-coil domain containing 157)	1	1.3	12.1	inactive
CCDC157 (coiled-coil domain containing 157)	2	-0.382	0.283	inactive
CCDC157 (coiled-coil domain containing 157)	3	0.505	6.52	inactive

Additional reagents follow:
gene knocked down	siRNA no.	G2 robust z-score	G2 cells, % of GMNN control	outcome
CT55 (cancer/testis antigen 55)	1	-0.419	0.0181	inactive
CT55 (cancer/testis antigen 55)	2	0.615	7.29	inactive
CT55 (cancer/testis antigen 55)	3	0.72	8.03	inactive
ZNF669 (zinc finger protein 669)	1	-0.465	-0.304	inactive
ZNF669 (zinc finger protein 669)	2	2.39	19.8	inactive
ZNF669 (zinc finger protein 669)	3	-1.12	-4.9	inactive
PHACTR2 (phosphatase and actin regulator 2)	1	-0.11	2.19	inactive
PHACTR2 (phosphatase and actin regulator 2)	2	3.56	28	inactive
PHACTR2 (phosphatase and actin regulator 2)	3	0.64	7.47	inactive
SDCCAG8 (SHH signaling and ciliogenesis regulator SDCCAG8)	1	0.251	4.74	inactive
SDCCAG8 (SHH signaling and ciliogenesis regulator SDCCAG8)	2	0.161	4.1	inactive
SDCCAG8 (SHH signaling and ciliogenesis regulator SDCCAG8)	3	2.83	22.9	inactive
ITM2B (integral membrane protein 2B)	1	-0.403	0.134	inactive
ITM2B (integral membrane protein 2B)	2	0.219	4.51	inactive
ITM2B (integral membrane protein 2B)	3	1.37	12.6	inactive
MBD6 (methyl-CpG binding domain protein 6)	1	3.3	26.2	inactive
MBD6 (methyl-CpG binding domain protein 6)	2	0.117	3.79	inactive
MBD6 (methyl-CpG binding domain protein 6)	3	-0.347	0.529	inactive
TAS2R45 (taste 2 receptor member 45)	1	0.59	7.12	inactive
TAS2R45 (taste 2 receptor member 45)	2	-0.268	1.08	inactive
TAS2R45 (taste 2 receptor member 45)	3	-0.341	0.569	inactive
RIBC2 (RIB43A domain with coiled-coils 2)	1	1.97	16.9	inactive
RIBC2 (RIB43A domain with coiled-coils 2)	2	0.88	9.16	inactive
RIBC2 (RIB43A domain with coiled-coils 2)	3	-0.353	0.487	inactive
RSAD2 (radical S-adenosyl methionine domain containing 2)	1	2.07	17.6	inactive
RSAD2 (radical S-adenosyl methionine domain containing 2)	2	-0.762	-2.39	inactive
RSAD2 (radical S-adenosyl methionine domain containing 2)	3	-0.444	-0.154	inactive
